In article PMC12882719 one finds binding data, which are given here for three molecules.

Chains of the proteins cited; added tags and fusions are not shown. Lines headed by an entry give the natural chain unless they say otherwise; changes in a name come on top. A line that says so, or that is headed by a name, gives the form on record, which may keep a tag or linker. Residues count along the entry.
GluN2B wild-type subunit of the NMDA receptor (Q13224, residues 27-1484): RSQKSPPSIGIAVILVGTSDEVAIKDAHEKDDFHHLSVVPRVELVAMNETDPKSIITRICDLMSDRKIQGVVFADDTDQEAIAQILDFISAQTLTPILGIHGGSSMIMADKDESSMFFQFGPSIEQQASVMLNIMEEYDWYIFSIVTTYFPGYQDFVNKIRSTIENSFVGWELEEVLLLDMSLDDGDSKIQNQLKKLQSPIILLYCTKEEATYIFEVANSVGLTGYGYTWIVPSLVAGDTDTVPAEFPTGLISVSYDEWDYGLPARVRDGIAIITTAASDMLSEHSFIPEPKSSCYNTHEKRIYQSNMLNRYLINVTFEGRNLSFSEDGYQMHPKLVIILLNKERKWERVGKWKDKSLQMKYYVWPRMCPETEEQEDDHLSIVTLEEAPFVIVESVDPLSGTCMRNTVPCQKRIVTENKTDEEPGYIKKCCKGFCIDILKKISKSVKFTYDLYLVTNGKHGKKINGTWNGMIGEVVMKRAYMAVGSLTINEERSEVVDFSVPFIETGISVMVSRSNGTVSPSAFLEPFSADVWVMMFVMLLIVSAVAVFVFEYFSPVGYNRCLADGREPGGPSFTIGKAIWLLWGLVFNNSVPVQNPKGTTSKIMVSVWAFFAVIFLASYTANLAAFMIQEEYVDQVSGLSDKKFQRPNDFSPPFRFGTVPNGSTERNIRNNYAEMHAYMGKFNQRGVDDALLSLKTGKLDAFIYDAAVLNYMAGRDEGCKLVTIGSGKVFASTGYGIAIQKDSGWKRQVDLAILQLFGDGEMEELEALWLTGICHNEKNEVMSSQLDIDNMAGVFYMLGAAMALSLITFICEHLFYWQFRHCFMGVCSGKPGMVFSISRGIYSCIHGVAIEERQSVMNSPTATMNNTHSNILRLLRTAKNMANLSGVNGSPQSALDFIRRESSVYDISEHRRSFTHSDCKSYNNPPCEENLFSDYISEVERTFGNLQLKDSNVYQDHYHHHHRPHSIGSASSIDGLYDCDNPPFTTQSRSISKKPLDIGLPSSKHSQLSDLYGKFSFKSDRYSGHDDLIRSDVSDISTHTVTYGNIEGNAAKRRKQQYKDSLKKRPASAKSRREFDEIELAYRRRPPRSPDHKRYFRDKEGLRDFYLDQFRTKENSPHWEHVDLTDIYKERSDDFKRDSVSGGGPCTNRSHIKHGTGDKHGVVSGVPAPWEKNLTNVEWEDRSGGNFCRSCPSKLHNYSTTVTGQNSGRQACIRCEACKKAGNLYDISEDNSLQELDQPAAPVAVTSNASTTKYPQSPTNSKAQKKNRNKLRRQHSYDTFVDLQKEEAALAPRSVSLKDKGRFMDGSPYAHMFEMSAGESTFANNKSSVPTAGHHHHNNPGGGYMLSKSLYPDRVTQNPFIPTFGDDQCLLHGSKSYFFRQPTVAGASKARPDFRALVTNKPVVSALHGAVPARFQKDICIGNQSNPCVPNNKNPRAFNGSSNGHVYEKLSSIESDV
GluN2B R519Q disease-associated variant subunit of the NMDA receptor (Q13224, form named): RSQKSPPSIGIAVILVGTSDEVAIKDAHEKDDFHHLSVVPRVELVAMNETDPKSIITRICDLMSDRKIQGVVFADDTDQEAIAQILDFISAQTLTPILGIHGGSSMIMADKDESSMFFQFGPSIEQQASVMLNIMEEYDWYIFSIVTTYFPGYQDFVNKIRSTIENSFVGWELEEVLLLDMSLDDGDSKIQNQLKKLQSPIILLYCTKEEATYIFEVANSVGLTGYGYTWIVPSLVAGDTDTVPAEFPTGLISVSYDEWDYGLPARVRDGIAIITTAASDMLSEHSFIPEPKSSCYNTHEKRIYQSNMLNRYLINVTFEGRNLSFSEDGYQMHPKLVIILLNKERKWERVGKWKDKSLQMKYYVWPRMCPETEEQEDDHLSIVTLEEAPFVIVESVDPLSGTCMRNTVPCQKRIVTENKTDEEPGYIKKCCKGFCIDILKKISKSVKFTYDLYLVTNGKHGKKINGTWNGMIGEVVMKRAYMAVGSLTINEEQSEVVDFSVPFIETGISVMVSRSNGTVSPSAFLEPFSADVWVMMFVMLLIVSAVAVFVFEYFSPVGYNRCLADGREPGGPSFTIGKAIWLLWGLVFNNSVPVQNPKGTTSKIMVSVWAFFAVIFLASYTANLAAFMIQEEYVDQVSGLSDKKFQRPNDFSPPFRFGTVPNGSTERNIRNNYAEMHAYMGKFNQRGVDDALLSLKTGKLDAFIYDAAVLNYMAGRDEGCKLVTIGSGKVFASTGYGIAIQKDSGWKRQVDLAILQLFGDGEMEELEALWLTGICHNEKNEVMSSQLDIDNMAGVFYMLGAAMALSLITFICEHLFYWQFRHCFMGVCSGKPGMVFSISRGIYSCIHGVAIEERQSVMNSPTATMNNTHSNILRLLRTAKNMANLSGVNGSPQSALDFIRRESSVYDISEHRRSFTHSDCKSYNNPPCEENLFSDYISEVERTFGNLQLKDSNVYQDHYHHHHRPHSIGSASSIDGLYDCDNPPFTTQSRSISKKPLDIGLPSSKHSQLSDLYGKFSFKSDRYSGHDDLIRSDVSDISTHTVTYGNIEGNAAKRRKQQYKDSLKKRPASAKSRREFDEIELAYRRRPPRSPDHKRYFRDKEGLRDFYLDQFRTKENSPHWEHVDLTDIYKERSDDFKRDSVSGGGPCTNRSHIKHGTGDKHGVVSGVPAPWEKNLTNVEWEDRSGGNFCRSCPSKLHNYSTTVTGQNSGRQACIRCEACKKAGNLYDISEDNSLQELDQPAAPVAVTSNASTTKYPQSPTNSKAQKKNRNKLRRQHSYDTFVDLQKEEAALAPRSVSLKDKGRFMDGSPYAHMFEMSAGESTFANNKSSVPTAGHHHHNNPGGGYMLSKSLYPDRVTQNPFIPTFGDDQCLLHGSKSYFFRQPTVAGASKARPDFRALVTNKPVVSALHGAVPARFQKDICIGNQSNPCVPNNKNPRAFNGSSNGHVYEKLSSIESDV
GluN2B R519Q_F1307A (R519Q variant with disrupted LIR motif) (Q13224, form named): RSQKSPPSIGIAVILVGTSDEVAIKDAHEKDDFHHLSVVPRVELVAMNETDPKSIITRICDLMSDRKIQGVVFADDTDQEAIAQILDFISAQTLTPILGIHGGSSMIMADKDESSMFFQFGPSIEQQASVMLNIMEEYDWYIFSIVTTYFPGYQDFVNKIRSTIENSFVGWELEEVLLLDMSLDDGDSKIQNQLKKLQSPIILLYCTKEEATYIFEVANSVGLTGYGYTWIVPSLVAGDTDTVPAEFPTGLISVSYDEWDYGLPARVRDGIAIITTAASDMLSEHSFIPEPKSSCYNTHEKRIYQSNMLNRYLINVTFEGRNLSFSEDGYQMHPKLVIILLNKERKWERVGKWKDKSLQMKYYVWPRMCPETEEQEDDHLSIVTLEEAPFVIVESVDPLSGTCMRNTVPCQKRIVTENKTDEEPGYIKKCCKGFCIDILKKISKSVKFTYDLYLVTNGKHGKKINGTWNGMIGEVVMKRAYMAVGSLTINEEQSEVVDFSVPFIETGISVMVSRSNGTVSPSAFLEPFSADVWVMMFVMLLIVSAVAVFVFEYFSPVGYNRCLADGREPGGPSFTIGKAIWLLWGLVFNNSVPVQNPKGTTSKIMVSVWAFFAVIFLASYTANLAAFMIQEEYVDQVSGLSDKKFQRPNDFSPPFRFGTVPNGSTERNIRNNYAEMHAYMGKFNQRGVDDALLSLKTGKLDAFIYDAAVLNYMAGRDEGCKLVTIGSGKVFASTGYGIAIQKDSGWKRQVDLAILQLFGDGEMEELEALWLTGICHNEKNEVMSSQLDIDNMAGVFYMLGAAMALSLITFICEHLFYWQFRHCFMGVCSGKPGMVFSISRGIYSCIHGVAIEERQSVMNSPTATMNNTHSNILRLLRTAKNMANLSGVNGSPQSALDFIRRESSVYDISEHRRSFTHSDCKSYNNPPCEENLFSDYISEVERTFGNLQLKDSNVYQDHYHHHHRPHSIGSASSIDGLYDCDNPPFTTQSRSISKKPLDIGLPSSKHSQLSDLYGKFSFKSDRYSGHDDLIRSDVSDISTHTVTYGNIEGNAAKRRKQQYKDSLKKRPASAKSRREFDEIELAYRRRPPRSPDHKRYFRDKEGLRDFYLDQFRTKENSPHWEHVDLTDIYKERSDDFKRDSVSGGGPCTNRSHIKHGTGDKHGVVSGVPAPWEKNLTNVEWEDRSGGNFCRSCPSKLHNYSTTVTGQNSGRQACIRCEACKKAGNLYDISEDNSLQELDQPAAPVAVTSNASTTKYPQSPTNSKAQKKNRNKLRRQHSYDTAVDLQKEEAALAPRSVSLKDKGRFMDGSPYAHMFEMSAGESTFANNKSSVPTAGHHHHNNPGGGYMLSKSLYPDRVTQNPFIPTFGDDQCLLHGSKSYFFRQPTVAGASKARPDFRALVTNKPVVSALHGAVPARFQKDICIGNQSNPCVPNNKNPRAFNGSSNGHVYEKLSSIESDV
UniProt Q14457: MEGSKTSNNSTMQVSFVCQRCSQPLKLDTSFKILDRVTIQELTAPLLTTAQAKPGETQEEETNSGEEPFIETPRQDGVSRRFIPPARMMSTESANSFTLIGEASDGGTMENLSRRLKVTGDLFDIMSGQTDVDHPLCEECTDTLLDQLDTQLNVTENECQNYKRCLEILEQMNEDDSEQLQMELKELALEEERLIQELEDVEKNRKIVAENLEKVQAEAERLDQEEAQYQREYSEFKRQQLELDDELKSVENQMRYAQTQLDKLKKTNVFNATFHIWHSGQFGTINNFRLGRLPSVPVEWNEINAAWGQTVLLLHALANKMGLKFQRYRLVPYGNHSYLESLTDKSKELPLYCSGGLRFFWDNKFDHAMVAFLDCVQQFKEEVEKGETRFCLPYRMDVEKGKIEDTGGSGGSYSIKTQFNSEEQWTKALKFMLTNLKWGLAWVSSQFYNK
UniProt O95197: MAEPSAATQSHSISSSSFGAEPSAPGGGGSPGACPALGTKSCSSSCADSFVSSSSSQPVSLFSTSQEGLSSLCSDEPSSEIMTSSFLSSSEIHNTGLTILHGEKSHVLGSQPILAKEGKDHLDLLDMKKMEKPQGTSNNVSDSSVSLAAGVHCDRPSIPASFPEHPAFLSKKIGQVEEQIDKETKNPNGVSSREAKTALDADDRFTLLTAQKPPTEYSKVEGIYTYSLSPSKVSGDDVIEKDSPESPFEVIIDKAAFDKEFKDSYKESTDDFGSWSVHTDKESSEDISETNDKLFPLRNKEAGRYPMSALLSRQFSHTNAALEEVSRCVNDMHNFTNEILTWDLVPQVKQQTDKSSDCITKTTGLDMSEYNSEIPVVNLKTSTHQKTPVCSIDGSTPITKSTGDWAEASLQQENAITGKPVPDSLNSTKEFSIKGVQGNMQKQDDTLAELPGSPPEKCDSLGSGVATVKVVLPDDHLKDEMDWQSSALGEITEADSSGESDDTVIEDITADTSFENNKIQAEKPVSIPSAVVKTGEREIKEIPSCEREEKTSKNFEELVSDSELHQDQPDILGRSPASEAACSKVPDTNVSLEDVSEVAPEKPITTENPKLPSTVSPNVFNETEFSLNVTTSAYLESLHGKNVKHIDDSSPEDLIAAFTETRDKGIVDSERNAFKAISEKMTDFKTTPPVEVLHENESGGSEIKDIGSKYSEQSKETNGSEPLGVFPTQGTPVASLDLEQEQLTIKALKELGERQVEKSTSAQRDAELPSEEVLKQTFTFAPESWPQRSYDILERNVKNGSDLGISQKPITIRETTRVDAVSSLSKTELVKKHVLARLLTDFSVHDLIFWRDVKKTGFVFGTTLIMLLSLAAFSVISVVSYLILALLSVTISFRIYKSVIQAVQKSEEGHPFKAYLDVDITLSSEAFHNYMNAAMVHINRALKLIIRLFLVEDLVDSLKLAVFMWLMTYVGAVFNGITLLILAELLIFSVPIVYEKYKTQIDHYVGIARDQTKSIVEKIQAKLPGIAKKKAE

Results are given in words; binding and its absence hold for the method and conditions named. In cells and extracts the contact can be indirect. Some entries that bind do so weakly or less than the wild type.

What all share (experiment): co-IP; lysates (1000 ug) of HEK293T cells transfected with GluN1 and GluN2B (WT, R519Q or R519Q_F1307A), cells treated with 20 nM Baf-A1 for 24 h; precipitated with mouse anti-GluN2B antibody (NeuroMab #75-097) and Protein A/G plus-agarose at 4 C, washed with TBS, 1% Triton X-100; partners detected by Western blot; IgG as negative control
The target of experiment [1] is GluN2B R519Q disease-associated variant subunit of the NMDA receptor (human) (UniProt Q13224).
Experiment [2] deals with GluN2B wild-type subunit of the NMDA receptor (human) (UniProt Q13224).
Experiment [3] concerns the target GluN2B R519Q_F1307A (R519Q variant with disrupted LIR motif) (human) (UniProt Q13224).

As for Beclin 1 (from UniProt Q14457 1-450), the binding entry in experiment [1] was “binds”.
Consider “ER-phagy receptor RTN3L (from UniProt O95197 1-1032)”, for which the binding entry in experiment [2] and in experiment [1] was “binds” throughout.

B1: ER-phagy receptor CCPG1 (protein, UniProt Q9ULG6-1 1-757)
chain: MSENSSDSDSSCGWTVISHEGSDIEMLNSVTPTDSCEPAPECSSLEQEELQALQIEQGESSQNGTVLMEETAYPALEETSSTIEAEEQKIPEDSIYIGTASDDSDIVTLEPPKLEEIGNQEVVIVEEAQSSEDFNMGSSSSSQYTFCQPETVFSSQPSDDESSSDETSNQPSPAFRRRRARKKTVSASESEDRLVAEQETEPSKELSKRQFSSGLNKCVILALVIAISMGFGHFYGTIQIQKRQQLVRKIHEDELNDMKDYLSQCQQEQESFIDYKSLKENLARCWTLTEAEKMSFETQKTNLATENQYLRVSLEKEEKALSSLQEELNKLREQIRILEDKGTSTELVKENQKLKQHLEEEKQKKHSFLSQRETLLTEAKMLKRELERERLVTTALRGELQQLSGSQLHGKSDSPNVYTEKKEIAILRERLTELERKLTFEQQRSDLWERLYVEAKDQNGKQGTDGKKKGGRGSHRAKNKSKETFLGSVKETFDAMKNSTKEFVRHHKEKIKQAKEAVKENLKKFSDSVKSTFRHFKDTTKNIFDEKGNKRFGATKEAAEKPRTVFSDYLHPQYKAPTENHHNRGPTMQNDGRKEKPVHFKEFRKNTNSKKCSPGHDCRENSHSFRKACSGVFDCAQQESMSLFNTVVNPIRMDEFRQIIQRYMLKELDTFCHWNELDQFINKFFLNGVFIHDQKLFTDFVNDVKDYLRNMKEYEVDNDGVFEKLDEYIYRHFFGHTFSPPYGPRSVYIKPCHYSSL
With B1, the binding entry in experiment [1] and in experiment [3] was “binds” throughout.
